Experiment: Evaluation of absorption capacity for carbon dioxide from the air (desiccator)
Conditions: 5 mmol amine, 100% by mass, 23° C., 50% RH, initial CO2 about 400 ppm; for Changes of CO2 Concentration 2 h: after 2 hours; for Changes of CO2 Concentration 24 h: after 24 hours

Structure (SMILES) | Changes of CO2 Concentration 2 h | Changes of CO2 Concentration 24 h
NCC1CCC(CN)CC1 (single isomer, unassigned) [Example 3, 1,4-bis(aminomethyl)cyclohexane] | 186 ppm | 371 ppm
NCCCNCC1CCCC(CNCCCN)C1 (centres unmarked) [Example 5] | 193 ppm | 279 ppm
NCC1CCC(CN)CC1 (single isomer, unassigned) [Example 2, 1,4-bis(aminomethyl)cyclohexane] | 206 ppm | 370 ppm
NCCNCCNCCN [Comparative Example 2, Triethylenetetramine, reference compound] | 165 ppm | 294 ppm

Source: patent US12667824B2, “Carbon dioxide absorbent” (MITSUBISHI GAS CHEMICAL COMPANY, INC., priority 2020, dated 2026)
